The test has as its target hnRNPA1^WT (transfected wild-type hnRNPA1) (UniProt P09651). The test is described as follows: co-IP; co-IP of hnRNPA1 (wild type or K113R) and TSG101 in PDAC cells with or without SAE1 overexpression; Western blotting. On the technique in general: In western blotting, separated proteins are transferred to a membrane and probed.

Protein sequences, listed by entry. Tags and fused reporters are not part of them.
UniProt P09651: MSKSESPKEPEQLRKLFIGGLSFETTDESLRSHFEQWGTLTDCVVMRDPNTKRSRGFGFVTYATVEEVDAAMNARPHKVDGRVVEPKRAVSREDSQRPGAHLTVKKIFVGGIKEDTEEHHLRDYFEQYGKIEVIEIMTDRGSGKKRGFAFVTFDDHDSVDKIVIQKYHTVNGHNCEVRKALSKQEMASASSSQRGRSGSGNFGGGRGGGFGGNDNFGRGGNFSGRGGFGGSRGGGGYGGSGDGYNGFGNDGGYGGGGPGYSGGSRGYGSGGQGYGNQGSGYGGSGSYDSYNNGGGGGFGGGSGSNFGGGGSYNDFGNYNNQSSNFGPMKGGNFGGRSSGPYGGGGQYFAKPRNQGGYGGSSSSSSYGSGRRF
UniProt Q99816: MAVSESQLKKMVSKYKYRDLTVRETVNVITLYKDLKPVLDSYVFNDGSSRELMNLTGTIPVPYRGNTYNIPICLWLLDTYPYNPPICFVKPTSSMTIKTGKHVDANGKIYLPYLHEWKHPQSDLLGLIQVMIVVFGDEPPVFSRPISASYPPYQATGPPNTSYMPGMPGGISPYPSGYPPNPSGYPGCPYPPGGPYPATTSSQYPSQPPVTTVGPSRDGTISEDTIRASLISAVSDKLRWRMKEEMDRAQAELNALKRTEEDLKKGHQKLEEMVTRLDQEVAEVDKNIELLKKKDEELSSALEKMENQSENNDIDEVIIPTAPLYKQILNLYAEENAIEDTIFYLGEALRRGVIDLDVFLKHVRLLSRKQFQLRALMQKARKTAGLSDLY

These are yes or no findings as the source states them, for the method shown. Binding seen in cells or lysates may run through a third protein. Some entries that bind do so weakly or less than the wild type.

Data on one substance can be found in article PMC9282935.

With “tumor susceptibility 101 (TSG101) (from UniProt Q99816 1-390)”, the binding entry is recorded as “binds”.
